From PMC9512081
Results are given in words; binding and its absence hold for the method and conditions named. In cells and extracts the contact can be indirect. Some binding calls cover weakened binding; strength is not graded here.

Chains of the proteins cited; added tags and fusions are not shown.
UniProt Q61686: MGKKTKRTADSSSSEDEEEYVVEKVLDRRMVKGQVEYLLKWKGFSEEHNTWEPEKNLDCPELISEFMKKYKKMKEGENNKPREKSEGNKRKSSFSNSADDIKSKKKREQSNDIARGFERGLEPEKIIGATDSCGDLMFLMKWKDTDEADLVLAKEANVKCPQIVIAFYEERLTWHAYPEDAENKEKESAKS
UniProt P23198: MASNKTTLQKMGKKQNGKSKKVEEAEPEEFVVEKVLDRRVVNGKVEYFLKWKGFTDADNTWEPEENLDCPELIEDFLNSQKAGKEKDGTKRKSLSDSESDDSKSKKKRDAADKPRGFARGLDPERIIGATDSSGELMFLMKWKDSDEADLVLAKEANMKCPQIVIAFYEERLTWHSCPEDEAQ

Key:
[1] = molecular target: Heterochromatin protein 1α (HP1α), mouse (mouse (endogenous in E13.5 cortex)) (UniProt Q61686); assay: co-IP; IP with anti-HP1γ or anti-HP1α antibody on Dynabeads Protein A from Benzonase-treated nuclear extracts of E13.5 wild-type mouse cortex, 150 mM NaCl final, overnight at 4°C; Western blots for POGZ and ADNP
[2] = molecular target: Heterochromatin Protein 1γ (HP1γ), mouse (mouse (endogenous in E13.5 cortex)) (UniProt P23198); assay: as above

Row | binding [1] | binding [2] | Binder
1 | no binding | binds | ADNP, mouse (protein, UniProt Q9Z103 1-1108) MFQLPVNNLGSLRKARKTVKKILSDIGLEYCKEHIEDFKQFEPNDFYLKNTTWEDVGLWDPSLTKNQDYRTKPFCCSACPFSSKFFSAYKSHFRNVHSEDFENRILLNCPYCTFNADKKTLETHIKIFHAPNSSAPSSSLSTFKDKNKNDGLKPKQADNVEQAVYYCKKCTYRDPLYEIVRKHIYREHFQHVAAPYIAKAGEKSLNGAVSLGTNAREECNIHCKRCLFMPKSYEALVQHVIEDHERIGYQVTAMIGHTNVVVPRAKPLMLIAPKPQDKKGMGLPPRISSLASGNVRSLPSQQMVNRLSIPKPNLNSTGVNMMSNVHLQQNNYGVKSVGQSYGVGQSVRLGLGGNAPVSIPQQSQSVKQLLPSGNGRSFGLGAEQRPPAAARYSLQTANTSLPPGQVKSPSVSQSQASRVLGQSSSKPPPAATGPPPSNHCATQKWKICTICNELFPENVYSVHFEKEHKAEKVPAVANYIMKIHNFTSKCLYCNRYLPTDTLLNHMLIHGLSCPYCRSTFNDVEKMAAHMRMVHIDEEMGPKTDSTLSFDLTLQQGSHTNIHLLVTTYNLRDAPAESVAYHAQNNAPVPPKPQPKVQEKADVPVKSSPQAAVPYKKDVGKTLCPLCFSILKGPISDALAHHLRERHQVIQTVHPVEKKLTYKCIHCLGVYTSNMTASTITLHLVHCRGVGKTQNGQDKTNAPSRLNQSPGLAPVKRTYEQMEFPLLKKRKLEEDADSPSCFEEKPEEPVVLALDPKGHEDDSYEARKSFLTKYFNKQPYPTRREIEKLAASLWLWKSDIASHFSNKRKKCVRDCEKYKPGVLLGFNMKELNKVKHEMDFDAEWLFENHDEKDSRVNASKTVDKKHNLGKEDDSFSDSFEHLEEESNGSGSPFDPVFEVEPKIPSDNLEEPVPKVIPEGALESEKLDQKEEEEEEEEEDGSKYETIHLTEEPAKLMHDASDSEVDQDDVVEWKDGASPSESGPGSQQISDFEDNTCEMKPGTWSDESSQSEDARSSKPAAKKKATVQDDTEQLKWKNSSYGKVEGFWSKDQSQWENASENAERLPNPQIEWQNSTIDSEDGEQFDSMTDGVADPMHGSLTGVKLSSQQA
2 | no binding | binds | Pogo Transposable Element with ZNF Domain protein (POGZ), mouse (protein, UniProt Q8BZH4 1-1409) MADTDLFMECEEEELEPWQKISDVIEDSVVEDYNSVDKTTSVSVSQQPVSAPVPIAAHASVAGHLSTSTTVSNSGAQNSDSTKKTLVTLIANNNAGNTLVQQGGQPLILTQNPAPGLGTMVTQPVLRPVQVMQNANHVTSSPVASQPIFITTQGFPVRNVRPVQNAMNQVGIVLNVQQGQTVRPITLVPAPGTQFVKPTVGVPQVFSQMTPVRPGSTMPVRPTTNTFTTVIPATLTIRSTVPQSQSQQTKSTPSTSTTPTATQPTSLGQLAGQPPGQSNQTSNPKLAPSFPSPPAVSIASFVTVKRPGVTGENSNEVAKLVNTLNTVPSLGQSPGPVVVSNNSSAQRTSGPESSVKVTSSIPVFDLQDGGRKICPRCNAQFRVTEALRGHMCYCCPEMVEYQKKGKSLDAEPSVPSAAKPSSPEKTAPVTSTPSSTPIPALSPPTKVPEPNENAGDAVQTKLIMLVDDFYYGRDGGKAAQLTSFPKVATSFRCPHCTKRLKNNIRFMNHMKHHVELDQQNGEVDGHTICQHCYRQFSTPFQLQCHLENVHSPYESTTKCKICEWAFESEPLFLQHMKDTHKPGEMPYVCQVCQYRSSLYSEVDVHFRMIHEDTRHLLCPYCLKVFKNGNAFQQHYMRHQKRNVYHCNKCRLQFLFAKDKIEHKLQHHKTFRKPKQLEGLKPGTKVTIRASRGQPRTVPVSSNDAPSGTLQEAAALTSTDPLPVFLYPPVQRNIQKRAVRKMSVMGRQTCLECSFEIPDFPNHFPTYVHCSLCRYSTCCSRAYANHMINNHVPRKSPKYLALFKNSVSGIKLACTSCTFATSVGDAMAKHLVFNPSHRSSNILPRGLSWMSHLRPGQASERVFDWSMKNTYLPPPLVPNKAATVKPVGVTPAEPQELAGPVLQALPSPASTATPPATPTHPQPSALPPSATEGTECLNVSEQEEGSPVTQDPEPASGGGGGSGVGKKEQLSVKKLRVVLFALCCNTEQAAEHFRNPQRRIRRWLRRFQASQGENLEGKYLSFEAEEKLAEWVLIQREQQLPVNEETLFQKATKIGRSLEGGFKISYEWAVRFMLRHHLTPHARRAVAHTLPKHVAENAGLFIEFVQRQIHNQDLPLSMIVAIDEISLFLDTEVLSSDDRKENALQTVGTGEPWCDVVLAILADGTVLPTLVFFRGQANRFANVPDSILLEAKDSGYSDDEIMELWSTRVWKKHTACQHSKSMLVMDCHRTHLSEEVLALLSASSTLPAVVPAGCSSKIQPLDVCIKRTVKNFLHKKWKEQAREMADAACDSDVLLQLVLVWLGEVLGVIGDSPELVQRSFLVASVLPGPDGNVNSPTRNADMQEELIASLEEQLKLNGEQSEEHSASAPRPRSSPEETVEPESLHQLFEGESETESFYGFEEADLDLMEI
